This assay deals with FLAG-DEPDC1B (DEP domain-containing protein 1B), expressed in MDA-MB-157 cells (human) (UniProt Q8WUY9). The experiment in a line: co-IP; MDA-MB-157 cells transfected with the tagged plasmids; antibodies against MYC, FLAG, HA or IgG (25 μg/mL); whole cell lysate rotated 1 h at room temperature, washed twice; Western blot.

Amino acid sequences for entries named in this document (tags omitted).
UniProt Q8WUY9: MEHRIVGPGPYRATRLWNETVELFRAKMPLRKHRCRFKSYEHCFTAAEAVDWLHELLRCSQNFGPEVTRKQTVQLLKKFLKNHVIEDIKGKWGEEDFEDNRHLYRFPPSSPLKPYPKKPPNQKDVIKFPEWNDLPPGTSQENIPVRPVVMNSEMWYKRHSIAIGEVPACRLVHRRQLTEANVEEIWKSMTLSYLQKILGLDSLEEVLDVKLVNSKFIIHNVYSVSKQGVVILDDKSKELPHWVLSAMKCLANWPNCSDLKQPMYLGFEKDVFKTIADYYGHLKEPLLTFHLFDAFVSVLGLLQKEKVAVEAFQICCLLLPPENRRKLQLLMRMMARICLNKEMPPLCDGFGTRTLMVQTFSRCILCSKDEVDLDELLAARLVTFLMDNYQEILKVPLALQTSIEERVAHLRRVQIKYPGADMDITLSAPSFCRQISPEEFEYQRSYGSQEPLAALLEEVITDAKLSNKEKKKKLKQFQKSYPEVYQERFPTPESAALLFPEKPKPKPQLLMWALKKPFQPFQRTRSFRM
UniProt P45974: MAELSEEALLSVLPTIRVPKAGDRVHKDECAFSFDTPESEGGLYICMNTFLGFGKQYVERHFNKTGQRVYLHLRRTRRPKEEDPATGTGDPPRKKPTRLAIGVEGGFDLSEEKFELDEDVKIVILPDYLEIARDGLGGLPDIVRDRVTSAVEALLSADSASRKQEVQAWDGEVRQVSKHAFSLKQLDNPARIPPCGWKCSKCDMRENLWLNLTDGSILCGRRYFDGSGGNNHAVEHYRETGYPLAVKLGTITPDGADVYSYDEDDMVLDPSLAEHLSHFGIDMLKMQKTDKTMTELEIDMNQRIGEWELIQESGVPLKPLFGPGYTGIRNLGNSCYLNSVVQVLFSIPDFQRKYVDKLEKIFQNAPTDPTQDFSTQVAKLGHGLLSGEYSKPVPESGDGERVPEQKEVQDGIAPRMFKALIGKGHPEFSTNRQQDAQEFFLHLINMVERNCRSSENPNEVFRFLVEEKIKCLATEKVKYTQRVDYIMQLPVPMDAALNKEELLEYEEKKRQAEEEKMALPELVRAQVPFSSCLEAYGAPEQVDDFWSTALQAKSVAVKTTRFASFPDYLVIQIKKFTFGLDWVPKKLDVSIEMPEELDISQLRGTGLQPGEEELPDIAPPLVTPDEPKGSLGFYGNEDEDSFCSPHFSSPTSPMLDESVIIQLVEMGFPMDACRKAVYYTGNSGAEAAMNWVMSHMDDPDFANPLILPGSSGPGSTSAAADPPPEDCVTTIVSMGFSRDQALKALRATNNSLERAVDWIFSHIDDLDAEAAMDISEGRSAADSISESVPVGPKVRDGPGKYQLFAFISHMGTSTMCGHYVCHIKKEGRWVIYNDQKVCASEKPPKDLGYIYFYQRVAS
UniProt P35222: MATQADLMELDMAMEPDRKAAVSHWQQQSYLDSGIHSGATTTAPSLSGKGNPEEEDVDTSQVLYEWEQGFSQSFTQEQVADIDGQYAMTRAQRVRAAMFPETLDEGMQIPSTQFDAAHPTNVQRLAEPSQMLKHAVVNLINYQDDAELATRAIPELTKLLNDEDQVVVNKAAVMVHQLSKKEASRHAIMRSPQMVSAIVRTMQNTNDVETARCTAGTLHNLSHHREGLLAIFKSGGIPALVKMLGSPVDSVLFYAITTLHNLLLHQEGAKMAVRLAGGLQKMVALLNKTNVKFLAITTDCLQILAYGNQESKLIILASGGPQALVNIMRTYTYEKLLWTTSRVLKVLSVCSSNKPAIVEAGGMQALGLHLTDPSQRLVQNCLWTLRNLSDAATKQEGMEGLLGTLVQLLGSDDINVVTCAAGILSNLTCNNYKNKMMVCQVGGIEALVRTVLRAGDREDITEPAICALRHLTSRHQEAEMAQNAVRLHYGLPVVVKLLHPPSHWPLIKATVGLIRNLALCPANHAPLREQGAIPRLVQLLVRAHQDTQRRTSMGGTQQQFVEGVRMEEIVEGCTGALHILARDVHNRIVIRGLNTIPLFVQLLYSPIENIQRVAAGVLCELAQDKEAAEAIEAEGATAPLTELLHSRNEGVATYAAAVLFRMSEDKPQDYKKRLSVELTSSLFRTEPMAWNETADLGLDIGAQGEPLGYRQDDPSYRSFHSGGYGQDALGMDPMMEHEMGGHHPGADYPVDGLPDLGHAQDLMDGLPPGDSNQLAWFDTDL

No constants are given. Whether binding was seen depends on the method and setting. Binding seen in cells or lysates may run through a third protein. Some results given as binding are weak or reduced against the parent protein; the word gives no strength.

For “MYC-USP5 (ubiquitin-specific protease 5), expressed in MDA-MB-157 cells (from UniProt P45974 1-858) (enzyme)”, the binding result was “binds”.

Take “HA-β-catenin, expressed in MDA-MB-157 cells (from UniProt P35222 1-781)”: the binding result is on record as “binds”.

The values above are taken from PMC10635659.
